Test results reported in paper PMC5025166.
No constants are given. Whether binding was seen depends on the method and setting. Binding seen in cells or lysates may run through a third protein. Some binding calls cover weakened binding; strength is not graded here.

Sequences of proteins named here, by UniProt entry; tags and fusion partners are left off.
UniProt P63101: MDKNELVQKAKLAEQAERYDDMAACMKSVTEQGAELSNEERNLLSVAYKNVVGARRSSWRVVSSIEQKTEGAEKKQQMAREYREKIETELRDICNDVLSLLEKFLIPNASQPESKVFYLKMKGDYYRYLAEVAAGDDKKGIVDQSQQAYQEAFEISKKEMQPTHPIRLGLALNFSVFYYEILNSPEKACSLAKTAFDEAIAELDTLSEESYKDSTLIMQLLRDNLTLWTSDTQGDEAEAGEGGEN
UniProt Q925T6: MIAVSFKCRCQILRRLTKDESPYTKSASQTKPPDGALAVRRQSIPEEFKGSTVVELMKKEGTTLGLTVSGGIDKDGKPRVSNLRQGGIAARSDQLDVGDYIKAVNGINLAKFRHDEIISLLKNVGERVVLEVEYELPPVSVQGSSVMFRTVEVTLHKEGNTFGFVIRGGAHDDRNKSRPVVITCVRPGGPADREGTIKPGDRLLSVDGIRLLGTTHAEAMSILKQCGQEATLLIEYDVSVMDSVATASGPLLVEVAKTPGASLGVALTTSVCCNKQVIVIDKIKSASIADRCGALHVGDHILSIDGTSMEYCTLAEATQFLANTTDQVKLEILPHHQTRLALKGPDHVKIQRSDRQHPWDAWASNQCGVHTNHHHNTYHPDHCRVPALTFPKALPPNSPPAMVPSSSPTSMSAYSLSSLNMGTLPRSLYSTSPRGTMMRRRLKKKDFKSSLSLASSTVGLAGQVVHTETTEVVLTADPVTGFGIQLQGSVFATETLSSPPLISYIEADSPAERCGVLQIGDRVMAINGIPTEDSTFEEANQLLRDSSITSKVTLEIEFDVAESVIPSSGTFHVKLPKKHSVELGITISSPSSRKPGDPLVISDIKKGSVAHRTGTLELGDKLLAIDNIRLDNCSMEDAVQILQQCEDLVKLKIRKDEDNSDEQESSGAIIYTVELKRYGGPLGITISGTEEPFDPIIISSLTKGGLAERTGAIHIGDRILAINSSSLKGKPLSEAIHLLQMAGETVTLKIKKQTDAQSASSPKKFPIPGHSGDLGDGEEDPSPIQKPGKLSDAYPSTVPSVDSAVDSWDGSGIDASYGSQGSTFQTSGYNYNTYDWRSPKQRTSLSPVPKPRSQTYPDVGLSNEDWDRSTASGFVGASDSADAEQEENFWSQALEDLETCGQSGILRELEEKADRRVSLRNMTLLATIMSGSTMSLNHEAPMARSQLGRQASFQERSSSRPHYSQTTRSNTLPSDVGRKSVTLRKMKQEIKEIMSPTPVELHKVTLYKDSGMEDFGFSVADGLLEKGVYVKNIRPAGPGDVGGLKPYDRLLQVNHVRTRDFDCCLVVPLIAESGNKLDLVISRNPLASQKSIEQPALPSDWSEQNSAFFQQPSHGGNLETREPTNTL

What was measured:
[1] = biological target: T1, GPIbβ (mouse (endogenous in mouse platelets)) (UniProt P56400); test: co-IP; NP-40 lysates of washed mouse platelets (WT and GRIP1-/-; resting or after botrocetin and vWF); antibody overnight at 4°C, protein A/G beads, one wash with PBS, Western blot
T1 sequence: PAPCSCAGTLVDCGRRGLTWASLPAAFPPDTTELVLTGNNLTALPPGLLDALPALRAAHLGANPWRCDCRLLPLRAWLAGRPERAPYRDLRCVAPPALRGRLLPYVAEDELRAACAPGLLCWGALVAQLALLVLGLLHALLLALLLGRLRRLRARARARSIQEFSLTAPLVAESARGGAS

[2] = biological target: 14-3-3ζ (mouse (endogenous in mouse platelets)) (UniProt P63101); test: as above

binding [1] | binding [2] | Substance
binds |  | 14-3-3ζ (from UniProt P63101 1-245)
binds | binds | Glutamate receptor interacting protein 1 (from UniProt Q925T6 1-1127)
